Measured values reported in article doi:10.1101/2023.05.13.539637.
Results are given in words; binding and its absence hold for the method and conditions named. Binding seen in cells or lysates may run through a third protein. Some entries that bind do so weakly or less than the wild type.

T1: RIP140 (Receptor Interacting Protein of 140 kDa), endogenous (human (endogenous in SW620 and HT29)) (UniProt P48552)
T1 sequence: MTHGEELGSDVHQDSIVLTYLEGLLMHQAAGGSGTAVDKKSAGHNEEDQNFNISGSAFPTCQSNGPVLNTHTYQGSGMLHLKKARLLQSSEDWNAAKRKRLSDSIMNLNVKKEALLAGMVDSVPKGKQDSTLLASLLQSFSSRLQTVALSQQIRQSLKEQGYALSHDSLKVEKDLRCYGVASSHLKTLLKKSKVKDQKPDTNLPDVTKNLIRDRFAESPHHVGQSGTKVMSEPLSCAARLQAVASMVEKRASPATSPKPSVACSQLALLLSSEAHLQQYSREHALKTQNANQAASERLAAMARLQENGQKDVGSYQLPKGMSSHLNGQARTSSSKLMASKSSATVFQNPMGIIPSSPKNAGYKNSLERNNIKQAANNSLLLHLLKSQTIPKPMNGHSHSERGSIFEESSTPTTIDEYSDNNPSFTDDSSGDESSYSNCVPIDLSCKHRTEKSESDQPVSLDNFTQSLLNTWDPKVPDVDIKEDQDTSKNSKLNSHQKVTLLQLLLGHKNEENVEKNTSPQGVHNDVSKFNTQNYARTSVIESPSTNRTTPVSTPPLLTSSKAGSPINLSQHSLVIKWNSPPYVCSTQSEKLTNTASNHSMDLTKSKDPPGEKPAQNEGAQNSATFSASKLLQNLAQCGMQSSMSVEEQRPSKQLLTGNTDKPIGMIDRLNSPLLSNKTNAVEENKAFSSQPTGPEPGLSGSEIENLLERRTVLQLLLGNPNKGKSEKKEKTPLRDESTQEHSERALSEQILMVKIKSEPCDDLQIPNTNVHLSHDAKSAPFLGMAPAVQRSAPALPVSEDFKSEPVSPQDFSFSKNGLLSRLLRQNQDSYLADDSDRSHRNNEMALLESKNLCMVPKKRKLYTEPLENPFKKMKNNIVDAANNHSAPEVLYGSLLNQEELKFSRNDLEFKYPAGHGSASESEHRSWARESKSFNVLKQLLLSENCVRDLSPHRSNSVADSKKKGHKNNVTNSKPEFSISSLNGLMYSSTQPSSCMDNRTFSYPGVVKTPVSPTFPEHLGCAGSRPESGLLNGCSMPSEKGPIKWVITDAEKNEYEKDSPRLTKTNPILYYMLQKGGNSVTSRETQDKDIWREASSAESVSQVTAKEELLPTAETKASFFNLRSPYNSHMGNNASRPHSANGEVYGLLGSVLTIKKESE

B1: in vitro translated HES1 protein (protein, UniProt Q14469 1-280)
chain: MPADIMEKNSSSPVAATPASVNTTPDKPKTASEHRKSSKPIMEKRRRARINESLSQLKTLILDALKKDSSRHSKLEKADILEMTVKHLRNLQRAQMTAALSTDPSVLGKYRAGFSECMNEVTRFLSTCEGVNTEVRTRLLGHLANCMTQINAMTYPGQPHPALQAPPPPPPGPGGPQHAPFAPPPPLVPIPGGAAPPPGGAPCKLGSQAGEAAKVFGGFQVVPAPDGQFAFLIPNGAFAHSGPVIPVYTSNSGTSVGPNAVSPSSGPSLTADSMWRPWRN
B2: HES1, endogenous (protein, UniProt Q14469 1-280)
chain: MPADIMEKNSSSPVAATPASVNTTPDKPKTASEHRKSSKPIMEKRRRARINESLSQLKTLILDALKKDSSRHSKLEKADILEMTVKHLRNLQRAQMTAALSTDPSVLGKYRAGFSECMNEVTRFLSTCEGVNTEVRTRLLGHLANCMTQINAMTYPGQPHPALQAPPPPPPGPGGPQHAPFAPPPPLVPIPGGAAPPPGGAPCKLGSQAGEAAKVFGGFQVVPAPDGQFAFLIPNGAFAHSGPVIPVYTSNSGTSVGPNAVSPSSGPSLTADSMWRPWRN

Assays:
[1] = target: GST-RIP1(27-439), N-terminal fragment of RIP140 (Receptor Interacting Protein of 140 kDa) fused with GST (UniProt P48552); test: pull-down
[2] = target: T1, RIP140 (Receptor Interacting Protein of 140 kDa), endogenous (human (endogenous in SW620 and HT29)); test: proximity ligation

Row | Binder | binding [1] | binding [2]
1 | B1 | binds | 
2 | B2 |  | binds
